Reference: PubChem BioAssay AID1224830 (NIAID, 2016)
The deposit covers about 18,000 reagents; this is an unselected part. Over the whole deposit, about 2,900 (16%) got an active call. 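Calls are made per well; low scores hint the gene aids the LPS response, high scores that it dampens it.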 Entries without a mark were called inactive. Repeated entries: four replicate wells of each siRNA pool. Reagent sequences are not shown.

Aim: 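Regulators of TLR4 signalling towards TNF-alpha in macrophage-like cells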 (primary screen)
System: human THP-1 monocytic leukaemia cells, TNF dual-luciferase reporter clone, PMA-differentiated to macrophage-like cells
Reagent: siRNA pool against human genes, 50 nM
Time to read-out: LPS for 4 h, given about 3 days after siRNA transfection
Treatment: bacterial LPS (TLR4 ligand), 10 ng/ml
Detection: 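Ratio of firefly to renilla light, scaled to the plate median and expressed as a robust z-score per replicate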
Direction: TNF reporter robust z-score: higher = stronger TNF reporter response to LPS
Hit rule: 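Each well counts as active if its z-score is over 2.8 or under -1.5; controls are left without a call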

Gene | TNF reporter robust z-score
DLL3 | 0.8
DLL3 | 1.14
DLL3 | 1.02
DLL3 | 1.86
CDK11B | 0.99
CDK11B | 1.45
CDK11B | 0.8
CDK11B | 1.79
GPR39 | -0.92
GPR39 | -0.3
GPR39 | -0.34
GPR39 | 0.14
TAF6L | -0.49
TAF6L | -0.16
TAF6L | -0.26
TAF6L | 0.04
FAM3C | 0.5
FAM3C | 1.21
FAM3C | 0.53
FAM3C | 0.81
ZNF555 | -0.33
ZNF555 | 0.57
ZNF555 | -0.62
ZNF555 | -0.14
LRFN4 | 1.24
LRFN4 | 1
LRFN4 | 0.18
LRFN4 | 1.66
SIRAL2 | 1.15
SIRAL2 | 2.26
SIRAL2 | 2.36
SIRAL2 | 3.25 (active)
NAXD | 0.52
NAXD | 0.22
NAXD | -0.56
NAXD | 0.94
CLDN14 | -1.17
CLDN14 | -1.42
CLDN14 | -1.41
CLDN14 | -1.28
SATB1 | -1.1
SATB1 | 0.34
SATB1 | -0.95
SATB1 | -1.52 (active)
ATP1B3 | -0.88
ATP1B3 | -1.35
ATP1B3 | -1.41
ATP1B3 | -1.26
SPATA31E1 | -1.19
SPATA31E1 | -0.88
SPATA31E1 | -0.5
SPATA31E1 | -0.69
SLC15A4 | -0.13
SLC15A4 | 0.44
SLC15A4 | -0.29
SLC15A4 | -0.48
LETM2 | 0.16
LETM2 | -0.21
LETM2 | -0.35
LETM2 | 0.51
NEIL3 | 1.45
NEIL3 | 2.2
NEIL3 | 1.55
NEIL3 | 1.57
KRTAP2-4 | -1.1
KRTAP2-4 | -0.83
KRTAP2-4 | -0.85
SPMIP5 | 1.58
SPMIP5 | 0.35
SPMIP5 | -0.88
SPMIP5 | 1.34
CDO1 | 0.7
CDO1 | 1.16
CDO1 | 1.59
CDO1 | 1
SOD2 | -0.58
SOD2 | -0.45
SOD2 | -0.09
SOD2 | 0.27
RAB15 | 0.35
RAB15 | 0.85
RAB15 | 1.22
RAB15 | 1.3
CPT1C | -0.7
CPT1C | 0.54
CPT1C | -0.5
CPT1C | -0.06
SLC2A2 | 0.11
SLC2A2 | 0.76
SLC2A2 | -0.46
SLC2A2 | 1.95
PCMTD1 | -0.73
PCMTD1 | -0.79
PCMTD1 | -0.57
PCMTD1 | 0.66
DCAF13 | -0.23
DCAF13 | -0.1
DCAF13 | -0.51
DCAF13 | -0.39
ESR2 | 0.11
ESR2 | 0.52
ESR2 | 0.71
ESR2 | 1.07
SMAD2 | 0.18
SMAD2 | 0.81
SMAD2 | 0.28
SMAD2 | 1.77
SSH1 | 0.06
SSH1 | -0.26
SSH1 | 0.41
SSH1 | 0.14
CCDC71 | 0.22
CCDC71 | 2.34
CCDC71 | 1.24
CCDC71 | 3.18 (active)
EMCN | -0.66
EMCN | -0.09
EMCN | 3.28 (active)
EMCN | 0.06
ATAT1 | 1
ATAT1 | 2.53
ATAT1 | 1.68
CTSB | -0.4
CTSB | -0.96
CTSB | 0.01
CTSB | 0.11
FETUB | -1.67 (active)
FETUB | -0.86
FETUB | -1.38
FETUB | -0.81
OR4N3P | -1.03
OR4N3P | 0.2
OR4N3P | -0.05
OR4N3P | 0.22
ENTPD6 | 1.59
ENTPD6 | 3.33 (active)
ENTPD6 | 2.42
ENTPD6 | 3.34 (active)
PIK3C2A | -1.72 (active)
PIK3C2A | -1.4
PIK3C2A | -1.58 (active)
PIK3C2A | -1.18
